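Lysine-tRNA ligase, Plasmodium falciparum 3D7 (UniProt Q8IDJ8). Enzyme assay of the cytosolic lysyl-tRNA synthetase in 384-well plates, read by luminescence. Concentration: 30 µM. Direction is inferred from only a few compounds that gave an IC50; most scored high, so higher reads as stronger inhibition. Size under these conditions: about 69,000 compounds, about 49 of them at 50% or above in at least one test.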

Protein sequences, listed by entry. Tags and fused reporters are not part of them. Residues count along the entry.
UniProt Q8IDJ8, 1-583: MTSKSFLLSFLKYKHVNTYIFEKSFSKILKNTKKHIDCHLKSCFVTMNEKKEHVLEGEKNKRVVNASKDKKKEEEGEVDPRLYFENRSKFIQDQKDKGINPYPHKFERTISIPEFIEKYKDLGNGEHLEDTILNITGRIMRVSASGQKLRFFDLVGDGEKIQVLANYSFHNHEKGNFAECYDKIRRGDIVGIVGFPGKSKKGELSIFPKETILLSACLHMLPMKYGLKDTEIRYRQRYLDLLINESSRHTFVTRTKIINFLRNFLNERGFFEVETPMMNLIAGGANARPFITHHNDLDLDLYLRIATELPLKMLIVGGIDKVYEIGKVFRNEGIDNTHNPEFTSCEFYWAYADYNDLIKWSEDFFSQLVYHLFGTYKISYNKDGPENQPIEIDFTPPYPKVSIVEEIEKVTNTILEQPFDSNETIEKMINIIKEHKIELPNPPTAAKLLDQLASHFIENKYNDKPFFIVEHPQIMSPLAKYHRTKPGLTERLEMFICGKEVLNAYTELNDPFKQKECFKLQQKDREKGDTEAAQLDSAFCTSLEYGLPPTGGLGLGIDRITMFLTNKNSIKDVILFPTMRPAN

Results are given as percent effect. How 0% and 100% were set is not recorded. Most values in the screen are low, and negative values occur. Compounds were drawn at random from those tested, without regard to their results.

Compound | Percent Effect
COc1c(C2CCCN2Cc2nnc(C3CC3)o2)c(C)nn1C (stereo not shown) | 2.322
CSc1ccc(CN(C(=O)c2cc(C)[nH]c(=O)c2)C2CC2)cc1 | -0.9969
Cc1nc(NCc2cccc(F)c2)cc(C2CCNCC2)n1 | 2.412
O=C(Cn1c(=O)oc2ccccc21)N1Cc2cncnc2C1 | 0.6904
c1ccc(COC2CCN(c3cncc(-n4cccn4)n3)CC2)cc1 | 12.63
CN(C)C(C(=O)NCCS(=O)(=O)N(C)C)c1cccc(F)c1 (stereo not shown) | -1.311
Cc1noc(C)c1C(=O)N(C)Cc1nc(-c2ccccn2)no1 | 4.694
CCC(C)NC(=O)Cn1ccc2c(C)nn(CC)c2c1=O (stereo not shown) | 5.175
Cn1ncc2c(N3CCCN4CCC[C@H]4C3)nc(C(C)(C)C)nc21 | -17.5
Cc1cccc(C2CCCN2C(=O)CCS(C)(=O)=O)c1C (stereo not shown) | 3.747
O=S1(=O)c2cccnc2OC(Cc2ccccc2)CN1CC1CC1 (stereo not shown) | 3.415
CC(O)CCN(C)C(=O)Nc1cccc(F)c1 (stereo not shown) | 3.339
O=C(c1ccc2ccccc2n1)N1CCC2(CCN2c2ncccn2)C1 (stereo not shown) | 4.853
CN1CCC2(CC1)CN(C(=O)c1cccnc1)Cc1ccccc12 | 1.278
CCNc1cc2c(nn1)CCN(C(=O)Cc1noc3ccccc13)C2 | 0.4069
O=C(Cn1cnc2sccc2c1=O)NCCc1nnc2ccccn12 | 5.382
CCOc1ncccc1C(=O)N1CCCC1Cn1nc(C)cc1C (stereo not shown) | -0.5951
O=C(Cc1cccc(F)c1)NCCNCc1cccc(O)c1 | 1.403
CC(C)NC(=O)N1CCCCC1c1nnc2n1CCNC2 (stereo not shown) | 1.424
Cc1cc(C)c(CNCC(O)c2ccc(F)c(F)c2)c(C)c1 (stereo not shown) | 6.073
Cc1ccc(F)c2c1N(C(=O)c1cn(CC(=O)N(C)C)nn1)CCC2 | -1.04
CC(C(=O)NCc1ccnc(OCC(F)(F)F)c1)n1cncn1 (stereo not shown) | 5.738
COC(=O)CC1CCN(C(=O)c2ccc(-n3nnnc3C)cc2)CC1 | 4.8
CN1CCC(NC(=O)Cc2csc(C(C)(C)C)n2)CC1 | 1.223
O=C([C@H]1C[C@@H]2CN(c3ncc(F)cn3)C[C@H]1O2)N1CCOCC1 | 1.281
C=C(C)COc1ccccc1CN1CCC(C(=O)NCC)C1 (stereo not shown) | 2.957
CC(C)N(Cc1ccccc1)Cc1nnsc1Cl | 4.22
Fc1cnccc1CN1CCC2(CCNCC2)C1 | 4.526
Cn1nccc1-c1nnn2c1COCC(CNCC1CC1)C2 (stereo not shown) | 1.864
CC(C)CN1Cc2cccc(NC(=O)Cc3ccon3)c2C1 | -2.373
CCc1cc(N2CCC(N[C@@H]3CS(=O)(=O)C[C@H]3O)CC2)nc(N(C)C)n1 | -3.658
Cc1noc(Cl)c1CC(=O)N1CCCC1Cn1cccn1 (stereo not shown) | 5.792
CCN(C(=O)c1ccc(-n2ncc(C#N)c2N)cc1)C1CCCC1 | 6.293
O=C(c1ccc(C2CCCO2)s1)N1Cc2ccccc2C1 (stereo not shown) | -0.7401
CCn1ccc(CNC(=O)c2cc(OC)cc(OC)c2)n1 | 7.877
O=C(CC1OCCc2ccccc21)NCCn1cccc1 (stereo not shown) | 3.677
Cc1cc(C(C)NC(=O)c2ccc(O)nc2)c(C)o1 (stereo not shown) | 1.305
Cc1nc(N2CCCC2)ncc1C(=O)Nc1ccc(Br)cc1 | 4.688
Cc1ccccc1CC1(CO)CCCN(c2ncccc2C#N)C1 (stereo not shown) | 1.85
CS(=O)(=O)c1ccc2c(c1)N(C(=O)Cc1cccc(F)c1)CCC2 | 11.82
Cn1ccc2c(NC(=O)Cn3ncc4c(c3=O)CCCC4)cccc21 | 1.813
O=C([C@@H]1C[C@@H]2CCN(Cc3ccc4c(c3)OCO4)C[C@@H]2O1)N1CCCC1 | 1.668
COCC1c2c(cnn2CC2CC2)CCN1Cc1nccs1 (stereo not shown) | 7.879
NC(=O)C(NC(=O)COC1CCCC1)c1ccccc1 (stereo not shown) | 1.328
CCCN(C(=O)c1ccc(-n2ccnn2)cc1)c1cccnc1 | 3.61
CCCOc1ccccc1CN[C@@H]1CCC[C@H]1Cc1cc(C)no1 | 0.8669
O=C(NCCNc1ccc(C(F)(F)F)cn1)c1cc(Cl)ccc1F | 1.179
Cc1cc(NC(=O)CN2CCCC2c2c(C)nn(C)c2Cl)on1 (stereo not shown) | 0.9491
CC(=O)N[C@@H]1CN(CC(=O)NCc2ccccc2C)C[C@H]1C(C)C | 7.166
COc1cccc(CN(C)Cc2c(C)noc2C)c1OC | -3.278

Some entries from above, unchanged:

Compound	Percent Effect
O=C([C@@H]1C[C@@H]2CCN(Cc3ccc4c(c3)OCO4)C[C@@H]2O1)N1CCCC1	1.668
O=C(Cn1cnc2sccc2c1=O)NCCc1nnc2ccccn12	5.382
COc1c(C2CCCN2Cc2nnc(C3CC3)o2)c(C)nn1C (stereo not shown)	2.322
O=C(Cn1c(=O)oc2ccccc21)N1Cc2cncnc2C1	0.6904

Measurements from “University of Dundee, Small-Polar-MMV Screening Library” (2021), ChEMBL document CHEMBL3988442.